Data published in patent publication US20240067740A1.
No constants are given. Whether binding was seen depends on the method and setting. Some entries that bind do so weakly or less than the wild type.

The chains behind the UniProt entries cited, without tags or fusion partners. Where a name states a change or a piece, a line headed by the entry shows the natural chain unless it says otherwise.
UniProt P20333: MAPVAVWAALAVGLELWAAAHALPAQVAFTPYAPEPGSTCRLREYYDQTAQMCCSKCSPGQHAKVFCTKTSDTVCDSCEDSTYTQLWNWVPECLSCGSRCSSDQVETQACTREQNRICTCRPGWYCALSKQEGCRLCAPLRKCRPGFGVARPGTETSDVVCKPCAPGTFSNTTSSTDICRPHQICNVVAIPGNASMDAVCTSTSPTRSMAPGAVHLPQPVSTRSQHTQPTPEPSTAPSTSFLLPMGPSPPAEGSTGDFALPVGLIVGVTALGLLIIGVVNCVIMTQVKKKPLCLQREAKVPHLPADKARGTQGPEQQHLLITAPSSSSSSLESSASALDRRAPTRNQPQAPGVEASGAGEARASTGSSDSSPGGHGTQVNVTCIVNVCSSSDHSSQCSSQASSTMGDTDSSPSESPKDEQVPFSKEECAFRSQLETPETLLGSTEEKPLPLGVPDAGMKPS

Columns and labels:
[1] = biological target: human TNFR2 (Homo sapiens) (UniProt P20333); assay: flow cytometry on HEK293T cells stably overexpressing human TNFR2
[2] = biological target: human TNFR2 (Homo sapiens) (UniProt P20333); assay: flow cytometry on HEK293T cells stably overexpressing human TNFR2, Alexa Fluor 647 secondary antibody
[3] = biological target: cynomolgus TNFR2 (Macaca fascicularis); assay: flow cytometry on HEK293T cells stably overexpressing the receptor
[4] = biological target: human TNFR2 (Homo sapiens) (UniProt P20333); assay: as above
[5] = biological target: cynomolgus TNFR2 (Macaca fascicularis); assay: flow cytometry on HEK293T cells stably overexpressing cynomolgus TNFR2
[6] = biological target: cynomolgus TNFR2 (Macaca fascicularis); assay: cell binding, flow cytometry or imaging
[7] = biological target: human TNFR2 (Homo sapiens) (UniProt P20333); assay: cell binding, flow cytometry or imaging

Measured: binding

B1: R2_mAb-3 (antibody, V domains shown)
VH: QVQLQESGPGLVKPSETLSLTCTVSGGSISSYYWSWIRQAPGKGLEWIGYIYYSGSTNYNPSLKSRVTISVDTSKNQFSLKLSSVTAADTAVYYCARDDGSSDYGMDVWGQGTTVTVSS
VL: AIQLTQSPSSLSASVGDRVTITCRASQGISSALAWYQQKPGKAPKLLIYDASSLESGVPSRFTGSGTDFTLTISSLQPEDFATYYCQQFNNYMYTFGQGTKLEIK
binds: [1] | [2] | [3] | [4] | [5] | [6] | [7]
